In the supplement of paper PMC11006884:
What follows is the remainder of the data, with few or none of the targets with a hit. Single values of this set are uncertain. Only a part is listed here, and it is no random draw.

Sequences of proteins named here, by UniProt entry; tags and fusion partners are left off. A change or cut given only in a name is not applied to a line headed by its entry.
UniProt Q00839, whole entry, looked up: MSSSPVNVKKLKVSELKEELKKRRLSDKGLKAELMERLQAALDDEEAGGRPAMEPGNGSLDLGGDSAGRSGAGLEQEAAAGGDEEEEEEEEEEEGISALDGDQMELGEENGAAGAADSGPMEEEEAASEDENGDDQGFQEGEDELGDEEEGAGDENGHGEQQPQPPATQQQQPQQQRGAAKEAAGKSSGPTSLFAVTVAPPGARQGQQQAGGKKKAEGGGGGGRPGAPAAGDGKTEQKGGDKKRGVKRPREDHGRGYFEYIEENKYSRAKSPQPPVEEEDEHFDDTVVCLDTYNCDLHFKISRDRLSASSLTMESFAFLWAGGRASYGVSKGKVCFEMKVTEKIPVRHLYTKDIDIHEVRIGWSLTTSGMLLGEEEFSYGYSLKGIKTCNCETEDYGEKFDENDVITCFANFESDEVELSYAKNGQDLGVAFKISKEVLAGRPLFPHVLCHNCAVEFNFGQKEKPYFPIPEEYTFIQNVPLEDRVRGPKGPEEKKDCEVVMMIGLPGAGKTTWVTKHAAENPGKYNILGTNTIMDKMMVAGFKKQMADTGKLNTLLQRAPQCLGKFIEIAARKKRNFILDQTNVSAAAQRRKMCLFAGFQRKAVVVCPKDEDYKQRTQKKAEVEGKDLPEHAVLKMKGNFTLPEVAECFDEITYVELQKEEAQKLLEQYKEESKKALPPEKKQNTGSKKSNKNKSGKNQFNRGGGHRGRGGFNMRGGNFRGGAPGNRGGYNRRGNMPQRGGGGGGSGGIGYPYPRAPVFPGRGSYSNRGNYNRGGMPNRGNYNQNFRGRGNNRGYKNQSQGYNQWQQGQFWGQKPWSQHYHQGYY
UniProt Q01813: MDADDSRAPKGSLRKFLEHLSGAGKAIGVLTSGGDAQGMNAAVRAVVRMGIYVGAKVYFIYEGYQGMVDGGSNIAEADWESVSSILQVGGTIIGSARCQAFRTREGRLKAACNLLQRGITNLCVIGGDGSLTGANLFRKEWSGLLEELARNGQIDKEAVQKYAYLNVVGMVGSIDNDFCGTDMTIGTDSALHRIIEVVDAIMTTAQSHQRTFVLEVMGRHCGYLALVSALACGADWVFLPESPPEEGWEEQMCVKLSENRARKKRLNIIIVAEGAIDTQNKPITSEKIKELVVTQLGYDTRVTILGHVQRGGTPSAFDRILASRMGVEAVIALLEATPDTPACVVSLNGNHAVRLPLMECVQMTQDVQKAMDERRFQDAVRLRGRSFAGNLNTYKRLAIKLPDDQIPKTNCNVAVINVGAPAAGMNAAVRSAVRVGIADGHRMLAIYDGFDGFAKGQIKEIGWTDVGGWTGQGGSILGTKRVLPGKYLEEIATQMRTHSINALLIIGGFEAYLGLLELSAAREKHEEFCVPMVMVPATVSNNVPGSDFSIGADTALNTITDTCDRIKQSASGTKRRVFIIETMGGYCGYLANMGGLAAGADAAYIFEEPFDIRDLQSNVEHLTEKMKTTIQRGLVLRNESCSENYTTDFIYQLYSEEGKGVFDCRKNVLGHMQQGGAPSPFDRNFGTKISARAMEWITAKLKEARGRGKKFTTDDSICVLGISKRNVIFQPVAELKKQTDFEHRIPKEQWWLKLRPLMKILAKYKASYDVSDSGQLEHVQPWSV
UniProt Q01658: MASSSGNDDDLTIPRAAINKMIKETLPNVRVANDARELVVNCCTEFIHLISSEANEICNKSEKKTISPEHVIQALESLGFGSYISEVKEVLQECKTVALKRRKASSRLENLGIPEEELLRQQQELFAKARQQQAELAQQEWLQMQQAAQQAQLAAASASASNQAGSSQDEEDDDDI
UniProt P78337, whole entry: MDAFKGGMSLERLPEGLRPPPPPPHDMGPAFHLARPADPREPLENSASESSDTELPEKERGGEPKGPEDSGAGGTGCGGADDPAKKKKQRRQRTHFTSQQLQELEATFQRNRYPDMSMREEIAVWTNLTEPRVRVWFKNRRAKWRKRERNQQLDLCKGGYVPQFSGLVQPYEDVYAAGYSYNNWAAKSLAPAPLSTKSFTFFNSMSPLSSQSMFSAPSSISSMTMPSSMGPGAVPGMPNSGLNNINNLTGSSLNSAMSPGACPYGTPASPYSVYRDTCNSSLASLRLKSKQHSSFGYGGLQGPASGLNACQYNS
UniProt P86790: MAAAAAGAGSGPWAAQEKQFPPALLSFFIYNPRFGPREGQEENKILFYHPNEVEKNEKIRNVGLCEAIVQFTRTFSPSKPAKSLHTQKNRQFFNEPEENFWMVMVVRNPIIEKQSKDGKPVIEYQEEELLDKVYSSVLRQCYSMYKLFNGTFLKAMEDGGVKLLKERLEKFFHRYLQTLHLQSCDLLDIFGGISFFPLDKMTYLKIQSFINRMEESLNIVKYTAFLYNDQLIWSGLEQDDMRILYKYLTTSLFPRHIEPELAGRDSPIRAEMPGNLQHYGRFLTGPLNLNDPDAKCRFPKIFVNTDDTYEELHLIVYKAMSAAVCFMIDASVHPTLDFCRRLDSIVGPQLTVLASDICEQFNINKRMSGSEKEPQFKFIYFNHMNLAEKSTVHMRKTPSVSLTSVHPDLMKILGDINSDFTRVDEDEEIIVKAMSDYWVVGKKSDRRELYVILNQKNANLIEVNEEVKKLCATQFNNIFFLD
UniProt P78417: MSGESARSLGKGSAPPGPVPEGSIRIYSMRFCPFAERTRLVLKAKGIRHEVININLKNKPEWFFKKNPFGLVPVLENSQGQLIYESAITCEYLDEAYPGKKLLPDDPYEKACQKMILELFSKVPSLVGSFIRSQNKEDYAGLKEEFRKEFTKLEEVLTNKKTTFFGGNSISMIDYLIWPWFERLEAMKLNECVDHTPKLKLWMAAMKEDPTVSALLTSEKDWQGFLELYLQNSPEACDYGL
UniProt P67775, whole entry, looked up: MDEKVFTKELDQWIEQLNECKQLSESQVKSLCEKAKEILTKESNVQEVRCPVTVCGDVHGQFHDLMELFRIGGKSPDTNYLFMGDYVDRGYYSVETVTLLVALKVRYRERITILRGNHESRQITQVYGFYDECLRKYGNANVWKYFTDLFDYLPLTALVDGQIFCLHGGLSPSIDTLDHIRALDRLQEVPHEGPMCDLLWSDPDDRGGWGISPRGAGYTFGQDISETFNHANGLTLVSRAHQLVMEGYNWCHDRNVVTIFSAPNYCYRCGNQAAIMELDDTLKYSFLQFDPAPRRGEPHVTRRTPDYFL
UniProt P68363, whole entry, looked up: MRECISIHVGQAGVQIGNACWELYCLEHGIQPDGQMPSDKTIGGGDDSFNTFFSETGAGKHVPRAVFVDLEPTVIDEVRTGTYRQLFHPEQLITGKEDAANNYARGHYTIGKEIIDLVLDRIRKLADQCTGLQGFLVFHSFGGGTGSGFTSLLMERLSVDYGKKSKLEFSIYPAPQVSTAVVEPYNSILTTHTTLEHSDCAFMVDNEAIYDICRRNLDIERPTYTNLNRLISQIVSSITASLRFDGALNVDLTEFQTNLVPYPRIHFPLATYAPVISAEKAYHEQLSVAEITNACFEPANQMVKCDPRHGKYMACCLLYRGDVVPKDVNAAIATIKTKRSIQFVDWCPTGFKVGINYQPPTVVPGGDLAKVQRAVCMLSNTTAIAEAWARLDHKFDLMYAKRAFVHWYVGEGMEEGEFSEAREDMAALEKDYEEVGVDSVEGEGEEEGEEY
UniProt Q00013: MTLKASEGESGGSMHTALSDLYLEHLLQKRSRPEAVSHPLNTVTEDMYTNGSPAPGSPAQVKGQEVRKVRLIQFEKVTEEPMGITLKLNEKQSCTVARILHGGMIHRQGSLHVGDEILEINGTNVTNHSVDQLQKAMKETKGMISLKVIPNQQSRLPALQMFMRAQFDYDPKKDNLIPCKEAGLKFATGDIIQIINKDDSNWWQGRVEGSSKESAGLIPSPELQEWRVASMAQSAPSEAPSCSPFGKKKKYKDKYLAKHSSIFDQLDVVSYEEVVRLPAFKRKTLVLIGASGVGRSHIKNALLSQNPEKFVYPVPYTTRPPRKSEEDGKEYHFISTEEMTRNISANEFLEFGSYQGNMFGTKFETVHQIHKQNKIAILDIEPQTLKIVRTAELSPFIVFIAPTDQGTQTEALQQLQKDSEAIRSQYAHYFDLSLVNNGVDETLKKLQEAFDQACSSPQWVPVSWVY
UniProt Q02040: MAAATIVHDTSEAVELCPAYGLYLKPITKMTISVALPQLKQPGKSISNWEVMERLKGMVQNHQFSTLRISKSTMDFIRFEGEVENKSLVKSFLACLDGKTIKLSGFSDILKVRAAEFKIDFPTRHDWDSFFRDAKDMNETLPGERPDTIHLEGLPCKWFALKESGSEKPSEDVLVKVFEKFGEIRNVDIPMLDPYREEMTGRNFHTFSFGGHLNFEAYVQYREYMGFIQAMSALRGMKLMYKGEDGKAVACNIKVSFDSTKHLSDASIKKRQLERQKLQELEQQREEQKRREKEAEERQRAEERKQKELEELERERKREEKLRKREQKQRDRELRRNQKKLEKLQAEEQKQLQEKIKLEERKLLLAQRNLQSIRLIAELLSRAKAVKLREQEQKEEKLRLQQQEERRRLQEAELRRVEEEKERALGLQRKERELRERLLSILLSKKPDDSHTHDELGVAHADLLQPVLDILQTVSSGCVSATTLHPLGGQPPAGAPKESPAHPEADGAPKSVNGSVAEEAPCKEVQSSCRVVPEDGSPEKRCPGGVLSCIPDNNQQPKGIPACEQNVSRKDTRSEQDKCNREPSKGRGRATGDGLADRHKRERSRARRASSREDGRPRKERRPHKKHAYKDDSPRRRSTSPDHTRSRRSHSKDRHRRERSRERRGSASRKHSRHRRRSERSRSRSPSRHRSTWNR
UniProt P62937, whole entry, looked up: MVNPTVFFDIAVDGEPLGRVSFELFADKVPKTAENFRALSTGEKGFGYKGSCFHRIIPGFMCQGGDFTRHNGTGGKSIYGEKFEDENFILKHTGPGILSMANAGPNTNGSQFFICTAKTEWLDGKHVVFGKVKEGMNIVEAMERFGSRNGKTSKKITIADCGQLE
UniProt Q00610: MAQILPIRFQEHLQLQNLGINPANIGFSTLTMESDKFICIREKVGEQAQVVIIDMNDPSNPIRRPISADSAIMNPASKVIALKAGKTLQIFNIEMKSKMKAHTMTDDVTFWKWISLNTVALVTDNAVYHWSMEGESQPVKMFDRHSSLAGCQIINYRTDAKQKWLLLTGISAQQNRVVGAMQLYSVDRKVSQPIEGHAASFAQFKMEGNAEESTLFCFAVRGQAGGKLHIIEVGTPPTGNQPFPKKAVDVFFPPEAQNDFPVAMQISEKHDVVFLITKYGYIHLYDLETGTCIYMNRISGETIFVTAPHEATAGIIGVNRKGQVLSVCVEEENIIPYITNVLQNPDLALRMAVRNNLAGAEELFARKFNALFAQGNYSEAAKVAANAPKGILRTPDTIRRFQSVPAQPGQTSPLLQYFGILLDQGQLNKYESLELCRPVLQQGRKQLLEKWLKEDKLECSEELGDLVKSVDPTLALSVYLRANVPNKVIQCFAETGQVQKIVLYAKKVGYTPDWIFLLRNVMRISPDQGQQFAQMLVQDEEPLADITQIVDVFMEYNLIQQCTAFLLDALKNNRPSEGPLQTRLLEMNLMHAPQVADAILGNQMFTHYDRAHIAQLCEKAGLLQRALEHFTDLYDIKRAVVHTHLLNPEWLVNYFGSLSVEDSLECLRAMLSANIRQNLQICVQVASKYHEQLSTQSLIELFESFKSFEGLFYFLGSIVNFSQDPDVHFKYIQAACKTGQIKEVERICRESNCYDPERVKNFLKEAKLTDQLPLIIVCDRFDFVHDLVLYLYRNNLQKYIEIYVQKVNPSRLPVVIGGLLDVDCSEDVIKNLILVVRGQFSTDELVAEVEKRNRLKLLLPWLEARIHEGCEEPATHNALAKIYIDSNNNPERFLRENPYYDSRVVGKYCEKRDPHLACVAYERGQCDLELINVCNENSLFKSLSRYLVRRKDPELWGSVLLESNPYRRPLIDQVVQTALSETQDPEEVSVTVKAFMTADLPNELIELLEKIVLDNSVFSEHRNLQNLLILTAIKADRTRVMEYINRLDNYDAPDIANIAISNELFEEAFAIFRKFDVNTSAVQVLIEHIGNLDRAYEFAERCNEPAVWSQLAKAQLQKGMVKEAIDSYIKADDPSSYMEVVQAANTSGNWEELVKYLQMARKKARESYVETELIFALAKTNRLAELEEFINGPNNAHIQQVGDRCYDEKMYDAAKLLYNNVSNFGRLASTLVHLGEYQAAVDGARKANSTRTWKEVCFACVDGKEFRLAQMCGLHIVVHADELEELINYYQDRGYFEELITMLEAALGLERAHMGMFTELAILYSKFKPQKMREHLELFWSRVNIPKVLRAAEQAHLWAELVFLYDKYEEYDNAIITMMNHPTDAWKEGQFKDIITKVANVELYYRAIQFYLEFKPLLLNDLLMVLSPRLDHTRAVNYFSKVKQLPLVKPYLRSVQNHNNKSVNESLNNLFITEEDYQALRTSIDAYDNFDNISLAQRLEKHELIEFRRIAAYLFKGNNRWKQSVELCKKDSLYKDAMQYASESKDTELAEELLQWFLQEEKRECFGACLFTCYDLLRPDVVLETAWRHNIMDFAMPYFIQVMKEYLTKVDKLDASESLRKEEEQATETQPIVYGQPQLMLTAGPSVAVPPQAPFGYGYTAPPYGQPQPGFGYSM

Compound: COC(=O)/C=C/c1ccccc1 [methyl cinnamate]
Test: log2 ratio of iodoacetamide-alkyne labeling of the cysteine site, DMSO over compound (competition); higher = stronger covalent engagement of the cysteine by the compound, active = 1 or more
Conditions: 500 µM; treatment time 1 h; system: HEK293T cell lysate
Method in brief: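 HEK293T lysate at 2 mg/mL was treated with vehicle or electrophile (500 µM) for 1 h at ambient temperature, then labelled with iodoacetamide alkyne (1 h), clicked to sCIP-TMT reagents, pooled, digested with trypsin overnight at 37 °C, enriched on streptavidin and eluted with acid. Peptides were analysed by Orbitrap Eclipse LC-MS/MS with FAIMS and quantified in FragPipe, using duplicate channels and three replicates, with cysteines quantified in only one replicate excluded. The log2 competition ratio for each cysteine is the mean control-channel reporter intensity divided by the mean compound-channel reporter intensity.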

log2 ratio of iodoacetamide-alkyne labeling, inactive:
MRPS9 C353 (UniProt P82933) 0.201
HNRNPU C594 (UniProt Q00839) 0.0385
MRPS21 C87 (UniProt P82921) 0.015
UniProt P78527_C25 0.166
PFKP C641 (UniProt Q01813) -0.0401
SPTBN1 C112 (UniProt Q01082) 0.0432
DR1 C94 (UniProt Q01658) 0.201
PFKP C343 (UniProt Q01813) -0.117
UniProt P63244_C182 0.162
PITX1 C77 (UniProt P78337) 0.679
P86790_C358 (UniProt P86791+P86790) 0.105
GSTO1 C90 (UniProt P78417) -0.174
UniProt P62917_C90 -0.291
RPL10A C66 (UniProt P62906) -0.0333
PPP2CA C20 (UniProt P67775) 0.227
OGDH C802 (UniProt Q02218) 0.189
ATP2C1 C49 (UniProt P98194) -0.217
MRPS25 C149 (UniProt P82663) -0.192
KIF23 C165 (UniProt Q02241) 0.114
HNRNPU C453 (UniProt Q00839) -0.071
UniProt P63244_C153 0.245
NFKB2 C57 (UniProt Q00653) 0.184
UniProt P68363_C20 0.00474
UniProt P84077_C159 0.0402
MRPS9 C233 (UniProt P82933) 0.296
CNBP C77 (UniProt P62633) 0.0293
MPP1 C242 (UniProt Q00013) 0.287
UniProt P83916_C156 0.302
CNBP C161 (UniProt P62633) -0.00608
KIF23 C42 (UniProt Q02241) -0.0193
UniProt P62829_C28 0.223
PPP2CA C196 (UniProt P67775) 0.198
UniProt Q02040_C542 0.405
PPIA C115 (UniProt P62937) 0.0498
UniProt P62917_C115 -0.0953
UniProt P62312_C36 0.0237
CLTC C870 (UniProt Q00610) 0.294

Two neighbouring entries already listed, quoted:
log2 ratio of iodoacetamide-alkyne labeling, inactive:
UniProt P62829_C28 0.223
PPP2CA C196 (UniProt P67775) 0.198
